Results: the supplement of paper PMC11098740
The list shows a part of the results. Repeats are few or missing, and single values can be far off.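 Pooled together, 41 HAP1 clones carry intronic fluorescent tags on 61 cancer-associated proteins, and each clone is recognized by its imaging pattern. Measurements are benchmarked against DMSO-treated control wells. dBET6, a BRD4 degrader, served as the positive control.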

Protein sequences, listed by entry. Tags and fused reporters are not part of them.
UniProt O14980, whole entry: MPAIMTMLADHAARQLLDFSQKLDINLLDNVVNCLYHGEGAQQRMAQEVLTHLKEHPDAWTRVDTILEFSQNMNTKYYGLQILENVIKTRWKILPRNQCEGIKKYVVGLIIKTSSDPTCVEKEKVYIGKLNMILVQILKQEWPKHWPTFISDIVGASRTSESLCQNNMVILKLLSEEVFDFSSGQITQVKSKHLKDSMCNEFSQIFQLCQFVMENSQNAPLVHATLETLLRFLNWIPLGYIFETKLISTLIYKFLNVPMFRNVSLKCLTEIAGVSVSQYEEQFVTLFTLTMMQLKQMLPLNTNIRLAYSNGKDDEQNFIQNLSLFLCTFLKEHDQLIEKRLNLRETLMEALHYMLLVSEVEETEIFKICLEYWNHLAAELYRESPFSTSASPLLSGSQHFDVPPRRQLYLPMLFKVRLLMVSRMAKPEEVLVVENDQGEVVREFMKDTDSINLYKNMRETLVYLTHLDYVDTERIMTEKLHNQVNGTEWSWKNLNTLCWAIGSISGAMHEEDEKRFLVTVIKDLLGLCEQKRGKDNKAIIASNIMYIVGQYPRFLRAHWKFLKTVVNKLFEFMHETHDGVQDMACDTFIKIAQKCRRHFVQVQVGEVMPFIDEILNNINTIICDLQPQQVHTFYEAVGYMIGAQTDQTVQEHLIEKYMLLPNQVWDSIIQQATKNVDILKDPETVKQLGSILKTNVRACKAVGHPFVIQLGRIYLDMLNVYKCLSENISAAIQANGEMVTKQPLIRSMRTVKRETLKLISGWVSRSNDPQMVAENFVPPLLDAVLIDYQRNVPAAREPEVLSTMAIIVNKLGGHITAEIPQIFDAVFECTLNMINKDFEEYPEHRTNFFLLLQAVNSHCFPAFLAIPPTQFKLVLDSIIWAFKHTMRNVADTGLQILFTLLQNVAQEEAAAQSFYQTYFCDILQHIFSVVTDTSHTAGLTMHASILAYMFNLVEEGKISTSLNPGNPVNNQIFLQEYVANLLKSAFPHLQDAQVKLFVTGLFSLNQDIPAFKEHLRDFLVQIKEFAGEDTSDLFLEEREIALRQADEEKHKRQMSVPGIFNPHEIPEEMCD

Biological target: XPO1 (intron 15 mScarlet tag, HAP1) (UniProt O14980)
Experiment: XPO1 fluorescence intensity change vs DMSO (log2 fold change); higher = more XPO1 protein
Conditions: 6 h

Row | Compound | XPO1 fluorescence intensity change (log2)
1 | Cc1c(N)nc([C@H](CC(N)=O)NC[C@H](N)C(N)=O)nc1C(=O)N[C@H](C(=O)N[C@H](C)[C@@H](O)[C@H](C)C(=O)N[C@H](C(=O)NCCc1nc(-c2nc(C(=O)NCCC[S+](C)C)cs2)cs1)[C@@H](C)O)[C@@H](OC1OC(CO)C(O)C(O)C1OC1OC(CO)C(O)C(OC(N)=O)C1O)c1cnc[nH]1 (some centres undefined) [Bleomycin] (9.95632 µM) | -0.0762
2 | C[C@]12Cc3c[nH]nc3C[C@@H]1CC[C@@H]1[C@@H]2CC[C@@]2(C)[C@H]1CC[C@]2(C)O [Stanozolol] (10 µM) | 0.0266
3 | O=c1[nH]c2ccc(Cl)cc2c(N[C@@H]2CN3CCC2CC3)c1-c1nc2ccccc2[nH]1 (20 µM) | 0.108
4 | CCOc1ccccc1-n1c(C(C)N2CCN(C(=O)COc3ccc(Cl)cc3)CC2)nc2ccccc2c1=O (centres undefined) [erastin] (10 µM) | -0.0776
5 | CN1C[C@H](C(=O)N[C@]2(C)O[C@@]3(O)[C@@H]4CCCN4C(=O)[C@H](Cc4ccccc4)N3C2=O)C[C@@H]2c3cccc4[nH]cc(c34)C[C@H]21 [Dihydroergotamine] (9.9995338 µM) | 0.0354
6 | CCNC(=O)C[C@@H]1N=C(c2ccc(Cl)cc2)c2cc(OC)ccc2-n2c(C)nnc21 (10 µM) | 0.0147
7 | Cc1cccc([C@H](C)c2c[nH]cn2)c1C [Dexmedetomidine] (10.0000196 µM) | -0.0622
8 | COC[C@@H](NC(C)=O)C(=O)NCc1ccccc1 [Lacosamide] (10 µM) | 0.583
9 | O=P1(N(CCCl)CCCl)NCCCO1 (centres undefined) [Cyclophosphamide] (10 µM) | -0.064
10 | NC(=O)C[S@@+]([O-])C(c1ccccc1)c1ccccc1 [Armodafinil (Modafinil)] (10 µM) | 0.0482
11 | C[C@]12C=CC(=O)C=C1CC[C@@H]1[C@@H]2CC[C@]2(C)OC(=O)CC[C@@H]12 [Testolactone] (10 µM) | -0.00446
12 | CC[C@@H](C(N)=O)N1CCCC1=O [Levetiracetam] (10 µM) | -0.283
13 | C/C=C(/C)C(=O)O[C@H]1C(C)=C2[C@H]([C@@H]1OC(=O)CCCCCCC)[C@@](C)(OC(C)=O)C[C@H](OC(=O)CCC)[C@@]1(O)[C@H]2OC(=O)[C@@]1(C)O [thapsigargin] (10 µM) | 0.119
14 | O=C(O)CCCc1ccc(N(CCCl)CCCl)cc1 [Chlorambucil] (10.66 µM) | 0.0536
15 | COc1ccc2c(c1)[C@]13CCCC[C@@H]1[C@H](C2)N(C)CC3 [Dextromethorphan] (10 µM) | 0.211
16 | CC(O)(CS(=O)(=O)c1ccc(F)cc1)C(=O)Nc1ccc(C#N)c(C(F)(F)F)c1 (centres undefined) [Bicalutamide] (20 µM) | 0.105
17 | CC(C)(O)C(=O)Nc1ccc([N+](=O)[O-])c(C(F)(F)F)c1 [Hydroxyflutamide] (10 µM) | 0.195
18 | O=[N+]([O-])O[C@H]1CO[C@H]2[C@@H]1OC[C@H]2O[N+](=O)[O-] [Isosorbide Dinitrate] (9.99947 µM) | -0.000319
19 | C[C@]12O[C@H](C[C@]1(O)CO)n1c3ccccc3c3c4c(c5c6ccccc6n2c5c31)CNC4=O [Lestaurtinib] (2 µM) | 0.0812
20 | N[C@@H](Cc1ccc(N(CCCl)CCCl)cc1)C(=O)O [Melphalan] (10 µM) | 0.112

Row | Compound | XPO1 fluorescence intensity change (log2)
21 | CCC1(c2ccc(N)cc2)CCC(=O)NC1=O (centres undefined) [Aminoglutethimide] (20 µM) | -0.0783
22 | N.N.[Cl][Pt][Cl] [Cisplatin] (20 µM) | 0.0535
23 | C=C1C[C@@H]2[C@H](CC[C@]3(C)C(=O)CC[C@@H]23)[C@@]2(C)C=CC(=O)C=C12 [Exemestane] (20 µM) | 0.124
24 | CCN(C(C)=O)c1cccc(-c2ccnc3c(C#N)cnn23)c1 [Zaleplon] (10.0001 µM) | 0.0701
25 | NCC(CC(=O)O)c1ccc(Cl)cc1 (centres undefined) [Baclofen] (10 µM) | 0.0265
26 | COCC1(CO)C(=O)C2CCN1CC2 (centres undefined) [Prima-1 Met] (20 µM) | 0.109
27 | C[C@]12CC[C@H]3[C@@H](CCC4=CC(=O)CC[C@@]43C)[C@@H]1CC[C@@H]2O [Testosterone] (10.00049246 µM) | 0.0417
28 | CN(C)C(=O)Oc1ccc[n+](C)c1 [Pyridostigmine  Bromide] (10 µM) | -0.161
29 | CC(C)[C@]12O[C@H]1[C@@H]1O[C@]13[C@]1(O[C@H]1C[C@H]1C4=C(CC[C@@]13C)C(=O)OC4)[C@@H]2O [Triptolide] (10 µM) | -0.165
30 | CC[C@@H](CO)NC(=O)[C@@H]1C=C2c3cccc4[nH]cc(c34)C[C@H]2N(C)C1 [Methylergonovine] (13.4 µM) | 0.087
31 | O=P1(NCCCl)OCCCN1CCCl (centres undefined) [Ifosfamide] (20 µM) | -0.142
32 | N[C@@H]1C[C@H]1c1ccccc1.N[C@H]1C[C@@H]1c1ccccc1 [Tranylcypromine] (10.0004 µM) | -0.083
33 | Cn1c(CCCC(=O)O)nc2cc(N(CCCl)CCCl)ccc21 [Bendamustine] (20 µM) | 0.173
34 | CN[C@@H]1C[C@H]2O[C@@](C)([C@@H]1OC)n1c3ccccc3c3c4c(c5c6ccccc6n2c5c31)C(=O)NC4 [staurosporine] (10 µM) | -0.0842
35 | COc1cc2c(cc1OC)C1CC(=O)C(CC(C)C)CN1CC2 (centres undefined) [Tetrabenazine] (10 µM) | -0.0051
36 | CCC(C)C(C)(COC(N)=O)COC(N)=O (centres undefined) [Mebutamate] (10 µM) | 0.077
37 | CCCC(C)(COC(N)=O)COC(=O)NC(C)C (centres undefined) [Carisoprodol] (10 µM) | 0.00397
38 | C[C@]12CC[C@H]3[C@@H](CC[C@@]45O[C@@H]4C(O)=C(C#N)C[C@]35C)[C@@H]1CC[C@@H]2O [Trilostane] (9.99988 µM) | -0.0195
39 | CN(C)C(=S)SSC(=S)N(C)C (1 µM) | 0.00631

Entries above containing fluorine, in the order listed:
Row | Compound | XPO1 fluorescence intensity change (log2)
16 | CC(O)(CS(=O)(=O)c1ccc(F)cc1)C(=O)Nc1ccc(C#N)c(C(F)(F)F)c1 (centres undefined) [Bicalutamide] (20 µM) | 0.105
17 | CC(C)(O)C(=O)Nc1ccc([N+](=O)[O-])c(C(F)(F)F)c1 [Hydroxyflutamide] (10 µM) | 0.195
